Source: the supplement of paper PMC10849652
The list shows a part of the results.

The chains behind the UniProt entries cited, without tags or fusion partners. Where a name states a change or a piece, a line headed by the entry shows the natural chain unless it says otherwise.
UniProt Q95460, whole entry, looked up: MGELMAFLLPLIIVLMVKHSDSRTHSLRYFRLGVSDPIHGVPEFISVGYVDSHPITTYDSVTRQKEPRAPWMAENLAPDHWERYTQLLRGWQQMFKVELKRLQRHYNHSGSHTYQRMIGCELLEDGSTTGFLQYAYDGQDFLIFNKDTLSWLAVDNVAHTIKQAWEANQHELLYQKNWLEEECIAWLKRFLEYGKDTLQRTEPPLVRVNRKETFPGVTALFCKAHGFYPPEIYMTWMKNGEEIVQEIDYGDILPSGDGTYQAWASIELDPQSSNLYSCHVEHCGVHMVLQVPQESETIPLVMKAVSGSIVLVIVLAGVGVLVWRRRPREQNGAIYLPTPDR
UniProt Q9BV20: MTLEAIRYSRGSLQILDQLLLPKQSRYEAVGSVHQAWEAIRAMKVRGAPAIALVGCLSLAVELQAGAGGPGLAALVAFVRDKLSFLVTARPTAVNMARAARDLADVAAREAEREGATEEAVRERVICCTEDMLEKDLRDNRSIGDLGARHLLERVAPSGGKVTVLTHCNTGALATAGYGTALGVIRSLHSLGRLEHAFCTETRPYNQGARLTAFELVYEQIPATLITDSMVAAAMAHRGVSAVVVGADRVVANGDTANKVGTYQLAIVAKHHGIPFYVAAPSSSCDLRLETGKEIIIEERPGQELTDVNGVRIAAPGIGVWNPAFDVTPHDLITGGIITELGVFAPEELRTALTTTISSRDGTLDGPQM
UniProt P29372, whole entry, looked up: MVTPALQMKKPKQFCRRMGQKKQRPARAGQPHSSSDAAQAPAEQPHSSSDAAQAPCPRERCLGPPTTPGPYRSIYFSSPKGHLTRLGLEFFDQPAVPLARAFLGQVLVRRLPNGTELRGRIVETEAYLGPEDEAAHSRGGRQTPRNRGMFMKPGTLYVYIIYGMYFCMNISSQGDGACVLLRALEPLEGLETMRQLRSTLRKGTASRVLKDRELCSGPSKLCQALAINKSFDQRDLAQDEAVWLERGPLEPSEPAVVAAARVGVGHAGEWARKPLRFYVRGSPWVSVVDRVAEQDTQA
UniProt O14880: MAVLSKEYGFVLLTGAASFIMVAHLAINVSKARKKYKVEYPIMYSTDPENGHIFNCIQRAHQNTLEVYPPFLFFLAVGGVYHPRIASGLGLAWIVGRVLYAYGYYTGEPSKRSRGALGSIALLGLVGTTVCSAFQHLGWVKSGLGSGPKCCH
UniProt Q5XKP0: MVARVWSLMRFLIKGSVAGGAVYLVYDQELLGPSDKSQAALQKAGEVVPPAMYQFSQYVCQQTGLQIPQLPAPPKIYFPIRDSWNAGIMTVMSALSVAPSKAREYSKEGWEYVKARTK
UniProt Q8N4C8: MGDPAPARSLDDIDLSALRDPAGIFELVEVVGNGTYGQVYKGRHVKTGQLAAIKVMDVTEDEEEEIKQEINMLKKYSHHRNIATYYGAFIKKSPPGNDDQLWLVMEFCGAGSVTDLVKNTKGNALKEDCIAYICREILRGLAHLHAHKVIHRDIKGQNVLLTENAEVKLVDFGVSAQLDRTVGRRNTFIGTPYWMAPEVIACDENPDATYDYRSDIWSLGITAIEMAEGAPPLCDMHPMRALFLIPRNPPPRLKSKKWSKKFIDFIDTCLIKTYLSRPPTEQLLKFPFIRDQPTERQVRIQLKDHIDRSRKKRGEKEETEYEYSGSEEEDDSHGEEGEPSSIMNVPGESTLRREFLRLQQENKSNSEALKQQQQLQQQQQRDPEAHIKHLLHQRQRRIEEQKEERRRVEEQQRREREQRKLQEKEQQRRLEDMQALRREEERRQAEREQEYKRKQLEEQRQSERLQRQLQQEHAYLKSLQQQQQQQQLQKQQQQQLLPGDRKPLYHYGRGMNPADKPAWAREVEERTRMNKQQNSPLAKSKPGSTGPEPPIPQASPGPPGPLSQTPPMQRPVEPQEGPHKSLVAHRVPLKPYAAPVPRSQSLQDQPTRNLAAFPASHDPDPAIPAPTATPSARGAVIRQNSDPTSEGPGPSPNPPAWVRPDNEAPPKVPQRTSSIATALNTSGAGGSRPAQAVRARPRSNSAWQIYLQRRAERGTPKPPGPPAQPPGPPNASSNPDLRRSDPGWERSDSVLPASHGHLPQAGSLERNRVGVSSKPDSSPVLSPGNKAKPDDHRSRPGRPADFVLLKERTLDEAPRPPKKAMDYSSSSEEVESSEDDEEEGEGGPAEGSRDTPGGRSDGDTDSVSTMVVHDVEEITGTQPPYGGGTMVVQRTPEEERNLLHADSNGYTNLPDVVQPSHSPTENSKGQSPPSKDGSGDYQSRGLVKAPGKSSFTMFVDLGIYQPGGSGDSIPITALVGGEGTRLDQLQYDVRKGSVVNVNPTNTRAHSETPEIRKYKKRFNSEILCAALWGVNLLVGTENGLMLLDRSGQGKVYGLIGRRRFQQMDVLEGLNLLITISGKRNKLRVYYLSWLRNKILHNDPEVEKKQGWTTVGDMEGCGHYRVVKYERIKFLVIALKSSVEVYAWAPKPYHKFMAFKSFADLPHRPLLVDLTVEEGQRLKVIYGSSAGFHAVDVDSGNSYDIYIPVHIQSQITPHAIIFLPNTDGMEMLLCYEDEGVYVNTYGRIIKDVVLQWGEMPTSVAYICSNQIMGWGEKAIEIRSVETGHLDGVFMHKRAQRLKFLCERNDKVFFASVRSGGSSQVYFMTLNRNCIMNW
UniProt Q8N344: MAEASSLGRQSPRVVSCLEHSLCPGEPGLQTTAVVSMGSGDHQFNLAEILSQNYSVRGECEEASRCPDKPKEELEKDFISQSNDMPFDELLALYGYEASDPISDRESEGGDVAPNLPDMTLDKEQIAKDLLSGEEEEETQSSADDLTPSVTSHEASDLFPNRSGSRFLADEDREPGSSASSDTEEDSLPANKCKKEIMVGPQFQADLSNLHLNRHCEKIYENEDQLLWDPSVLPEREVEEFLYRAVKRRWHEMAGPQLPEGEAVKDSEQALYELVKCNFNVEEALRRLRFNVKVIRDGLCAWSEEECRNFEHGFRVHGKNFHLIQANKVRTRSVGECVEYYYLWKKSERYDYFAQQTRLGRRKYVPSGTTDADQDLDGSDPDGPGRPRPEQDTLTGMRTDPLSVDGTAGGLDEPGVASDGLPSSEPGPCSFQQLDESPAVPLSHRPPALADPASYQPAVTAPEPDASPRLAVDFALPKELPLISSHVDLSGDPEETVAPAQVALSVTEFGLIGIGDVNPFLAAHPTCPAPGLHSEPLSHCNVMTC
UniProt Q9H3L0: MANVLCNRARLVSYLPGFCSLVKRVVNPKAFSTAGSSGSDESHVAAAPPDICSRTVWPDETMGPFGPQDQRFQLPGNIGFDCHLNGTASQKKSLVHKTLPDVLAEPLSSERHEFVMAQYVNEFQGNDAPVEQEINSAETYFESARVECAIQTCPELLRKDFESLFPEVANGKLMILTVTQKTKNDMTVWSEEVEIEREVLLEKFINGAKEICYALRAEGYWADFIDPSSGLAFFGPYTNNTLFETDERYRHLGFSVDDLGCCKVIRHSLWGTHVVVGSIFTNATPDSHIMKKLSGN
UniProt Q9UNW1: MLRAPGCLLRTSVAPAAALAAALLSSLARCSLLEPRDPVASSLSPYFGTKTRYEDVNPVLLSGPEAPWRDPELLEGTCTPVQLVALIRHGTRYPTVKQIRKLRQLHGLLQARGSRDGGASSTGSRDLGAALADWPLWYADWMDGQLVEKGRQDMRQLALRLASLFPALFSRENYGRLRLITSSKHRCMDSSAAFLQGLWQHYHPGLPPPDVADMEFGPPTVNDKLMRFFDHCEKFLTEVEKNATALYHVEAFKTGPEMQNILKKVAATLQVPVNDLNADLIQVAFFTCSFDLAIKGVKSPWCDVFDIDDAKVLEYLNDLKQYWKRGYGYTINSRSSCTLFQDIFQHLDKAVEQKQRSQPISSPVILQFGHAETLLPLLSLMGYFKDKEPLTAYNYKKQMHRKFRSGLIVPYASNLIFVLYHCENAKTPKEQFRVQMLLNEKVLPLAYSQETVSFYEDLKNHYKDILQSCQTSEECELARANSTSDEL
UniProt Q7L9L4: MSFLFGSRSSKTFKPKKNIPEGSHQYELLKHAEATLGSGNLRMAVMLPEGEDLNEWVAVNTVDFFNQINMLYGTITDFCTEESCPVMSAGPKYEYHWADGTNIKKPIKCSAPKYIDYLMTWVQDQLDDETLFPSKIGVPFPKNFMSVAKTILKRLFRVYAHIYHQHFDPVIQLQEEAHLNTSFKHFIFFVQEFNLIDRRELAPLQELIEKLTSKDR
UniProt Q7Z3K6: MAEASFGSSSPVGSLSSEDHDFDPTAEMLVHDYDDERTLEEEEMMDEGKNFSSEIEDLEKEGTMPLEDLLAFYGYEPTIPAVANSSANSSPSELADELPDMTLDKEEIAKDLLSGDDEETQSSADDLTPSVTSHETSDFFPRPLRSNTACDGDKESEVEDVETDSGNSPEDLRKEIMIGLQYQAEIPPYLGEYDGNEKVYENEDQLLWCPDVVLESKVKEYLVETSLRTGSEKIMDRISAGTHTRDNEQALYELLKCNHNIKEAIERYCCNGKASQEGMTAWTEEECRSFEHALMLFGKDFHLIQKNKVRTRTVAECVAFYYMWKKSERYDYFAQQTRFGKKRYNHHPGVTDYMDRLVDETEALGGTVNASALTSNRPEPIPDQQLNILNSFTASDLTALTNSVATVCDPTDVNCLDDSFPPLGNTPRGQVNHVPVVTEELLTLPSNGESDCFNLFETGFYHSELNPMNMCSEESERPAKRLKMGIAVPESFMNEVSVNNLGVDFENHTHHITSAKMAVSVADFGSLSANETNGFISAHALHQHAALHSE
UniProt Q9UHC7: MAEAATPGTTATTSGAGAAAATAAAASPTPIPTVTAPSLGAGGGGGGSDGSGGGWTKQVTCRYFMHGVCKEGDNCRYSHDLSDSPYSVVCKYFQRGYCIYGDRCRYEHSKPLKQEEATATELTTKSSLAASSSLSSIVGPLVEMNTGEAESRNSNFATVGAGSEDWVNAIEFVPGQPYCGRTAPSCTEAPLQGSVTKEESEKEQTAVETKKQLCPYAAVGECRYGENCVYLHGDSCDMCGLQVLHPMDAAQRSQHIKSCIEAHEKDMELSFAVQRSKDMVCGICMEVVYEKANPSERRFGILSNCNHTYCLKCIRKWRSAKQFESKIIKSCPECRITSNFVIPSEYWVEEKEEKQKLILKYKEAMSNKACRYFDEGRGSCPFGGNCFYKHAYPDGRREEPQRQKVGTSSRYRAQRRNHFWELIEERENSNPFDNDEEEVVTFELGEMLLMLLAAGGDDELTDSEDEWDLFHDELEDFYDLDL
UniProt Q8N3R9: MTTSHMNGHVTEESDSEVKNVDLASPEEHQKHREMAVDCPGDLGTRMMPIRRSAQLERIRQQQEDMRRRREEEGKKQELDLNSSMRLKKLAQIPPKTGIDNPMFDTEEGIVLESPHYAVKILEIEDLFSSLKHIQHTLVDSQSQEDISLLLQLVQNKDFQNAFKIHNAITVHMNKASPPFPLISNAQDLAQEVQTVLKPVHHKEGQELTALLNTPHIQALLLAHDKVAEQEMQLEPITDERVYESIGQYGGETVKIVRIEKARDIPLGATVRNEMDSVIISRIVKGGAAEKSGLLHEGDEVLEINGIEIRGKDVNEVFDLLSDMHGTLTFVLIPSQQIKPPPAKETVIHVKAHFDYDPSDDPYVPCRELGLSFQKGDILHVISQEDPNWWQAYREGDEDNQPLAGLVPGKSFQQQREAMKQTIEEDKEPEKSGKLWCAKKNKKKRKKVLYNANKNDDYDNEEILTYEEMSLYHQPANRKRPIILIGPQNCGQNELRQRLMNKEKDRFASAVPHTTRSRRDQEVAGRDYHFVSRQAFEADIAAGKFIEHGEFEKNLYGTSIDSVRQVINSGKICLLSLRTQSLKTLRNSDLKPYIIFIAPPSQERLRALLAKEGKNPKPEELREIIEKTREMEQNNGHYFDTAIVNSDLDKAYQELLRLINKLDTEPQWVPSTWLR
UniProt Q9H081: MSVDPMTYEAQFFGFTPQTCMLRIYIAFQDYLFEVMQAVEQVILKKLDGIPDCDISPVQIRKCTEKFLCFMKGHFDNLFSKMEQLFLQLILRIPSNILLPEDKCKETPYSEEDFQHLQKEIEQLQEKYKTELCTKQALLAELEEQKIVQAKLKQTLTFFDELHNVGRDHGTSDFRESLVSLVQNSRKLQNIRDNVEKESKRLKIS
UniProt Q8N108: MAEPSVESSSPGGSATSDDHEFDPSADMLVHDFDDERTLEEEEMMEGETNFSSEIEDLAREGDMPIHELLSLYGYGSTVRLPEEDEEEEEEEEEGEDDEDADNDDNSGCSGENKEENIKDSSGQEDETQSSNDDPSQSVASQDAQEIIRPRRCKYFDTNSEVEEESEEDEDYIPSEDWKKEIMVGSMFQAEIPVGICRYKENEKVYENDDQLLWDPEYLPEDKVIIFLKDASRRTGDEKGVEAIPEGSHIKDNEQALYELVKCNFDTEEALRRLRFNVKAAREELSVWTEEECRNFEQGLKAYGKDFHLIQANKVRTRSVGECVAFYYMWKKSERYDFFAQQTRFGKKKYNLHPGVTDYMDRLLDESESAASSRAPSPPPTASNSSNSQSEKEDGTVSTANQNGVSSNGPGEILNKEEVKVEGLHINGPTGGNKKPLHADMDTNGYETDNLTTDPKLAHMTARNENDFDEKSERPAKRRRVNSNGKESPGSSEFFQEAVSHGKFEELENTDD

Compound: C1=CC=C(C=C1)[C@H](COC2=CC3=C(C=C2)NC(=O)N3)NC(=O)C4=CC=CN(C4=O)CC5=CC(=C(C=C5)F)F
Assay: log2 fold change, soluble protein after heating vs DMSO (PISA); higher = thermal stabilisation; K562 lysate, 10 uM; active = over 0.2 and 3.5 SD of the protein, either way, in both replicates (recomputed)
Summary of the method: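 Quantification was by TMTpro 16plex LC-MS/MS with equalised channel sums, applied to the supernatant after 21,000xg for 90 min. Samples were crude K562 extract at 1 mg/mL protein in PBS pH 7.4 with 1 mM MgCl2, treated with 10 μM compound for 30 min, heated for 3 min across 48°C-58°C, pooled and brought to 0.5% NP-40 at 4°C. Values are log-two fold changes in thermal stability relative to solvent controls, from duplicates.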

**Q.** Which log2 fold change does the source give for MINDY1 isoform 3 (UniProt Q8N5J2) here?
**A.** inactive: 0.017

**Q.** For MOCOS (UniProt Q96EN8), which log2 fold change is on record?
**A.** inactive: 0.027

**Q.** For MORC3 (UniProt Q14149), which log2 fold change is on record?
**A.** inactive: 0.013

**Q.** With MLLT1 (UniProt Q03111) as the target, how does the log2 fold change read?
**A.** inactive: 0.023

**Q.** Which log2 fold change does the source give for MIEF1 (UniProt L0R8F8) here?
**A.** inactive: 0.018

**Q.** For MR1 (UniProt Q95460), which log2 fold change is on record?
**A.** inactive: -0.035

**Q.** MORF4L1 isoform 2 (UniProt Q9UBU8) was tested. Which log2 fold change did it give?
**A.** inactive: 0.012

**Q.** How did the log2 fold change turn out when MIA2 (UniProt Q96PC5) was run?
**A.** inactive: -0.072

**Q.** With MON1A (UniProt Q86VX9) as the target, how does the log2 fold change read?
**A.** inactive: -0.007

**Q.** MRI1 (UniProt Q9BV20) was tested. Which log2 fold change did it give?
**A.** inactive: 0.017

**Q.** How did the log2 fold change turn out when MKNK1 (UniProt Q9BUB5) was run?
**A.** inactive: -0.038

**Q.** With MND1 (UniProt Q9BWT6) as the target, how does the log2 fold change read?
**A.** inactive: 0.053

**Q.** With MPG (UniProt P29372) as the target, how does the log2 fold change read?
**A.** inactive: -0.039

**Q.** Which log2 fold change does the source give for MGST3 (UniProt O14880) here?
**A.** inactive: 0.003

**Q.** Which log2 fold change does the source give for MICOS13 (UniProt Q5XKP0) here?
**A.** inactive: -0.149

**Q.** With MRPL15 (UniProt Q9P015) as the target, how does the log2 fold change read?
**A.** inactive: -0.016

**Q.** MOCS2 (UniProt O96007) was tested. Which log2 fold change did it give?
**A.** inactive: -0.015

**Q.** Which log2 fold change does the source give for MRPL14 (UniProt Q6P1L8) here?
**A.** inactive: -0.036

**Q.** MINK1 (UniProt Q8N4C8) was tested. Which log2 fold change did it give?
**A.** inactive: 0.069

**Q.** With MIER2 (UniProt Q8N344) as the target, how does the log2 fold change read?
**A.** inactive: 0.156

**Q.** MMADHC (UniProt Q9H3L0) was tested. Which log2 fold change did it give?
**A.** inactive: 0.039

**Q.** How did the log2 fold change turn out when MIA3 (UniProt Q5JRA6) was run?
**A.** inactive: -0.004

**Q.** For MINPP1 (UniProt Q9UNW1), which log2 fold change is on record?
**A.** inactive: 0.084

**Q.** How did the log2 fold change turn out when MOB1B isoform 2 (UniProt Q7L9L4) was run?
**A.** inactive: 0.028

**Q.** How did the log2 fold change turn out when MIER3 isoform 2 (UniProt Q7Z3K6) was run?
**A.** inactive: 0.211

**Q.** With MIIP (UniProt Q5JXC2) as the target, how does the log2 fold change read?
**A.** inactive: -0.022

**Q.** How did the log2 fold change turn out when MKRN1 (UniProt Q9UHC7) was run?
**A.** inactive: 0.049

**Q.** For MPRIP isoform 2 (UniProt Q6WCQ1), which log2 fold change is on record?
**A.** inactive: -0.06

**Q.** Which log2 fold change does the source give for MRPL12 (UniProt P52815) here?
**A.** inactive: -0.084

**Q.** Which log2 fold change does the source give for MPP5 (UniProt Q8N3R9) here?
**A.** inactive: -0.044

**Q.** How did the log2 fold change turn out when MOSPD2 (UniProt Q8NHP6) was run?
**A.** inactive: -0.024

**Q.** How did the log2 fold change turn out when MOB2 isoform 3 (UniProt Q70IA6) was run?
**A.** inactive: -0.099

**Q.** How did the log2 fold change turn out when MIS12 (UniProt Q9H081) was run?
**A.** inactive: 0.014

**Q.** Which log2 fold change does the source give for MICALL2 (UniProt Q8IY33) here?
**A.** inactive: -0.014

**Q.** Which log2 fold change does the source give for MRGBP (UniProt Q9NV56) here?
**A.** inactive: 0.001

**Q.** With MIER1 isoform 12 (UniProt Q8N108) as the target, how does the log2 fold change read?
**A.** inactive: 0.043

**Q.** How did the log2 fold change turn out when MRPL16 (UniProt Q9NX20) was run?
**A.** inactive: -0.068

**Q.** For MGAT4B isoform 3 (UniProt Q9UQ53), which log2 fold change is on record?
**A.** inactive: -0.163
